Numbering of substitutions follows the chain as printed. Results are given in words; binding and its absence hold for the method and conditions named. Some entries that bind do so weakly or less than the wild type. Each block holds one binder with its values, some of them ahead of it.
Molecular target: T1, IL-11Rα as used in the Biacore kinetics of Example 14 (UniProt Q14626)
T1 sequence (looked up): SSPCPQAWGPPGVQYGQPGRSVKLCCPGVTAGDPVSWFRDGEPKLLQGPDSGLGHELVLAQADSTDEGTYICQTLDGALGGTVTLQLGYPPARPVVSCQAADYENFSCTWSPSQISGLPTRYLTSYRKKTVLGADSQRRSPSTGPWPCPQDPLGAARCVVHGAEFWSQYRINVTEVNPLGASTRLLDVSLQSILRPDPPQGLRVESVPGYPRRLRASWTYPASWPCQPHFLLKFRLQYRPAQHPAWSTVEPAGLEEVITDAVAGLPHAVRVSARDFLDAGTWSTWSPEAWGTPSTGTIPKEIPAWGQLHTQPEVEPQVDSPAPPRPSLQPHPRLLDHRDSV
Assay: SPR (Biacore T200), multi-cycle kinetics

binding: binds
B1: Humanised BSO-9A7 variant VH3/VL3 (antibody, V domains shown)
VH: QVQLVQSGAEVKKPGASVKVSCKASGYTFTNYWMHWLRQRPGQGLEWIGNIGPSDSKTHYNQKFKDRATLTVDKSTSTAYMELSSLRSEDTAVYYCARGDYVLFTYWGQGTLVTVSS
VL: DIVLTQSPATLSLSPGERATLSCRASQSISNNLHWYQQKPGQAPRLLIKYASQSISGIPARFSGSGSGTDFTLTISSLEPEDFAVYFCQQSYSWPLTFGQGTKLEIK
notes: Variable domains only

binding: binds
B2: Humanised BSO-9A7 variant VH4/VL2 (antibody, V domains shown)
VH: B1 VH with A68V, L70M
VL: B1 VL with P40S, P80T
notes: Variable domains only

binding: binds
B3: Humanised BSO-9A7 variant VH3/VL2 (antibody, V domains shown)
VH: B1 VH
VL: B1 VL with P40S, P80T
notes: T0003 heads the columns 'Heavy chain' and 'Light chain', but the entries are variable domains

binding: binds
B4: Humanised BSO-9A7 variant VH3/VL4 (antibody, V domains shown)
VH: B1 VH
VL: B1 VL with F87Y
notes: Variable domains only

binding: binds
B5: Humanised BSO-9A7 variant VH4/VL4 (antibody, V domains shown)
VH: B1 VH with A68V, L70M
VL: B1 VL with F87Y
notes: Variable domains only; also called printed once as VH4/VH4

binding: binds
B6: Humanised BSO-9A7 variant VH4/VL3 (antibody, V domains shown)
VH: B1 VH with A68V, L70M
VL: B1 VL
notes: Variable domains only

— US20190389957A1 (SINGAPORE HEALTH SERVICES PTE, published 2019)
